Results are given in words; binding and its absence hold for the method and conditions named. Some results given as binding are weak or reduced against the parent protein; the word gives no strength.
Tests used:
Test in all cases: ITC; dilution ITC, step: higher-order complex to coiled-coil dimers; 1.82 mM monomer in the syringe injected into buffer alone, 20°C, 10 mM K-PIPES pH 7.2, dissociation model; both purified
[1] = biological target: CrSAS-6_CCLE (C. reinhardtii) (UniProt A9CQL4)
[2] = biological target: CrSAS-6_CCLQ (C. reinhardtii) (UniProt A9CQL4)
[3] = biological target: CrSAS-6_CCLD (C. reinhardtii) (UniProt A9CQL4)
[4] = biological target: CrSAS-6_CCVD (C. reinhardtii) (UniProt A9CQL4)

B1: CrSAS-6_CCLE (domain or fragment, UniProt A9CQL4 277-390)
chain: KLREVKYELDTKVSELSHKLGSSEGSNRSAEEETARLRSLNQQLSSSKHALEIQLNEAKAKVLALDEKAQSQGDVIEQQRGRLRDMEAALRQTEQRCADLRDTLASAEGRAKEA
Q: For B1, which binding [1] is on record?
A: binds weakly

B2: CrSAS-6_CCLQ (domain or fragment, UniProt A9CQL4 277-390)
chain: KLREVKYELDTKVSELSHKLGSSEGSNRSLEEETARLRSLNQQASSSKHELEIALNEAKAKVLALDEKAQSQGDVIEQQRGRLRDMEAALRQTEQRCADLRDTLASAEGRAKEA
Q: For B2, which binding [2] is on record?
A: binds weakly

B3: CrSAS-6_CCLD (domain or fragment, UniProt A9CQL4 277-390)
chain: KLREVKYELDTKVSELSHKLGSSEGSNRSLEEETARLRSLNQQLSSSKHELEIQLNEAKAKVEALDEKAQSQGDVIEQQRGRLRDMEAALRQTEQRCADLRNTLASAEGRAKEA
Q: For B3, which binding [3] is on record?
A: binds weakly

B4: CrSAS-6_CCVD (domain or fragment, UniProt A9CQL4 277-390)
chain: KLREVKYELDTKVSELSHKLGSSEGSNRSLEEETARLRSLNQQLSSSKHELEIQLNEAKAKVLALDEKAQSQGDEIEQQRGRLRNMEAALRQTEQRCADLRDTLASAEGRAKEA
Q: With B4 as the binder, how does the binding [4] read?
A: binds weakly

— publication PMC9592557, “Structures of SAS-6 coiled coil hold implications for the polarity of the centriolar cartwheel” (Structure(London, England:1993), 2022)
